Experimental data: PubChem BioAssay AID602196 (INSERM, 2012)
Purpose: 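Knock-downs that protect lung cancer cells from cisplatin or sensitise them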. Cells: human A549 lung cancer cells. Reagent: siRNA pair against human genes. Time to read-out: 48 h transfection before cisplatin; time from cisplatin to read-out not stated. Challenge: cisplatin at a dose killing half of control-siRNA cells; exact dose and duration not given. Measured: 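Shift in cisplatin death relative to control siRNA, from -50 (all cells die) to +50 (no cells die); siRNAs harmful on their own scored 0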. Reading the numbers: two-siRNA summed score (-2 to +2): higher = both siRNAs protect from cisplatin killing; -2 means both sensitise; mean protection from cisplatin (shift in death) and protection from cisplatin (shift in death), siRNA C and protection from cisplatin (shift in death), siRNA D: higher = protection from cisplatin killing. Rule for the call: 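Each siRNA scores 0 if harmful alone by LDH or WST-1, otherwise +1 if it reduces and -1 if it increases cisplatin killing; a gene is active when both siRNAs agree (sum +2 or -2)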. Meaning of the calls: active = both siRNAs shift cisplatin killing the same way; inactive = no consistent shift, or siRNA harmful alone.
The deposit covers about 23,000 reagents; this is a random part of them. In the full data, 455 (2%) were called active. 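Active includes both protection and sensitisation; some change values fall well beyond the stated -50 to +50 range.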 Entries without a mark were called inactive. The record does not give: the amount of reagent.

gene knocked down | two-siRNA summed score (-2 to +2) | mean protection from cisplatin (shift in death) (%) | protection from cisplatin (shift in death), siRNA C (%) | protection from cisplatin (shift in death), siRNA D (%)
PIK3CA | 0 | 3 | -1.3 | 7.4
LOC389767 | 0 | 5.8 | 1.5 | 10.1
VENTX (VENT homeobox) | 0 | 1.4 | -2.2 | 5
EYS (EGF-like photoreceptor maintenance factor) | -1 | -11.7 | -20.5 | -2.8
NMT1 (N-myristoyltransferase 1) | -1 | -12.8 | -11.8 | -13.8
LOC400197 | 0 | 6.2 | 7.3 | 5.1
ARMCX5 (armadillo repeat containing X-linked 5) | 0 | 3 | 10.7 | -4.8
RBM11 (RNA binding motif protein 11) | 0 | 8.5 | 11.8 | 5.2
FAM43B (family with sequence similarity 43 member B) | 0 | 7.6 | 19.4 | -4.2
MGAT1 | 0 | -4.3 | 2.8 | -11.4
FAM110A (family with sequence similarity 110 member A) | 1 | 7.7 | -4 | 19.5
SRSF8 (serine and arginine rich splicing factor 8) | 0 | 1.6 | -8.5 | 11.7
LOC402505 | 0 | 13.8 | 11.7 | 15.9
FBXL9P (F-box and leucine rich repeat protein 9, pseudogene) | 1 | 7.1 | 14.1 | 0.2
KRTAP20-1 (keratin associated protein 20-1) | 1 | 6.8 | 13.6 | 0
LOC87769 | 0 | 11.6 | 9 | 14.1
PPP1R16A (protein phosphatase 1 regulatory subunit 16A) | 0 | 3.4 | 12.6 | -5.8
DGKI (diacylglycerol kinase iota) | 0 | 4.9 | 7.6 | 2.2
CDR1 (cerebellar degeneration related 1) | 0 | 8.4 | 7.3 | 9.4
OR5H15 (olfactory receptor family 5 subfamily H member 15) | 0 | 9.3 | 11.4 | 7.2
TBC1D20 (TBC1 domain family member 20) | 0 | 0.5 | -6.6 | 7.6
LOC441212 | 0 | 5.4 | 2.8 | 8
IQCM (IQ motif containing M) | 0 | 4 | 7.6 | 0.5
PROS1 (protein S) | 0 | -0.5 | -12.9 | 11.8
UBQLN3 (ubiquilin 3) | 0 | 5.8 | 10.1 | 1.4
CDH24 (cadherin 24) | 0 | -7.5 | -5.3 | -9.7
VPS28 (VPS28 subunit of ESCRT-I) | 1 | 7.4 | -3.7 | 18.5
ZNF248 (zinc finger protein 248) | 0 | 13.5 | 12.1 | 15
ACBD4 (acyl-CoA binding domain containing 4) | 0 | 7.5 | 9.9 | 5.2
PIGF (phosphatidylinositol glycan anchor biosynthesis class F) | 0 | 6 | 10.8 | 1.2
ZNF354C (zinc finger protein 354C) | 0 | 2.5 | -3.1 | 8.1
ST18 (ST18 C2H2C-type zinc finger transcription factor) | 0 | 9.9 | 11.6 | 8.3
PGLYRP2 (peptidoglycan recognition protein 2) | 0 | -1.8 | 15.9 | -19.5
RSPH4A (radial spoke head component 4A) | 1 | 9.8 | 5.9 | 13.8
LOC440731 | 1 | 29 | 20.2 | 37.7
APOBEC3G (apolipoprotein B mRNA editing enzyme catalytic subunit 3G) | 1 | 9.8 | 27.9 | -8.2
KCMF1 (potassium channel modulatory factor 1) | 0 | -6.1 | -5.4 | -6.8
EPHA5 (EPH receptor A5) | 0 | -1 | -12 | 10
GNLY (granulysin) | 0 | 0.8 | 10.7 | -9
PPP4R2 (protein phosphatase 4 regulatory subunit 2) | 0 | -4.5 | -5.2 | -3.8
HCN1 | 0 | -0.1 | -17.7 | 17.5
GHRHR (growth hormone releasing hormone receptor) | 0 | 9 | 9.7 | 8.3
GET3 (guided entry of tail-anchored proteins factor 3, ATPase) | 1 | 12.8 | 1 | 24.5
H3-3A (H3.3 histone A) | 0 | 15.4 | -4.1 | 34.9
TENT4B (terminal nucleotidyltransferase 4B) | 0 | 6.6 | -0.9 | 14.1
SPAG8 (sperm associated antigen 8) | 1 | 9.4 | 12.6 | 6.1
CSPG4 (chondroitin sulfate proteoglycan 4) | 0 | -0.4 | -15.1 | 14.2
KATNIP (katanin interacting protein) | 0 | 5.9 | 4.8 | 7
POC1B (POC1 centriolar protein B) | 1 | 7.8 | 14.8 | 0.9
LOC400748 | 0 | -4.4 | -15.6 | 6.8
RBPJL | -1 | -22.2 | -14.3 | -30.2
HSF1 (heat shock transcription factor 1) | 0 | 10.7 | 18 | 3.3
RNF11 (ring finger protein 11) | 0 | -26.5 | -1.1 | -51.8
TICAM2 (TIR domain containing adaptor molecule 2) | -1 | -12.3 | -4.7 | -20
SPATA20 (spermatogenesis associated 20) | 1 | 5.2 | -20.2 | 30.6
SEC63 (SEC63 protein translocation regulator) | 1 | 9.9 | 10.8 | 9
RPL4 (ribosomal protein L4) | 0 | 18.5 | 26.5 | 10.4

2 entries from above, arranged by “mean protection from cisplatin (shift in death) (%)”, lowest first:
gene knocked down | two-siRNA summed score (-2 to +2) | mean protection from cisplatin (shift in death) (%) | protection from cisplatin (shift in death), siRNA C (%) | protection from cisplatin (shift in death), siRNA D (%)
ZNF354C (zinc finger protein 354C) | 0 | 2.5 | -3.1 | 8.1
PIGF (phosphatidylinositol glycan anchor biosynthesis class F) | 0 | 6 | 10.8 | 1.2
